Data as given in the supplement of paper PMC12889115.
The list shows a part of the results. Values are raw readings; no control value is given beside them.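 Primary screen: polymyxin B was added at a level permeabilizing Salmonella outer membranes while sparing inner membranes. DMSO wells, both with and without polymyxin B, established maximum growth. Plate-to-plate variation meant each plate was ranked on its own, and the lowest-OD600 compounds were selected as hits.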

Tested on: Salmonella enterica serovar Typhimurium SL1344
Experiment: bacterial growth OD600 after 18 h with compound and polymyxin B; higher = more bacterial growth (less inhibition)
Conditions: 50 µM, Mueller-Hinton broth

## Cc1nn(C)c(Cl)c1CN1CCCC(CCC(=O)Nc2ccccc2F)C1 (stereo not drawn)
Polymyxin B 1 µg/mL
  bacterial growth OD600: 0.921

## O=C(NCc1ccco1)N1CCc2onc(-c3ccc(C(F)(F)F)cc3)c2C1
Polymyxin B 0.75 µg/mL
  bacterial growth OD600: 0.776

## CC(C)N1CCC(N2CCCC2C(=O)Nc2cccc(-n3cccn3)c2)CC1 (stereo not drawn)
Polymyxin B 1 µg/mL
  bacterial growth OD600: 1.01

## COCCN1C(=O)CC(CC(=O)N2CCCC(c3ccccc3)CC2)(c2cccc(OC)c2)C1=O (stereo not drawn)
Polymyxin B 0.75 µg/mL
  bacterial growth OD600: 0.01

## COc1ccc(CNC(=O)c2cnn(-c3nccc(-c4ccccc4OC)n3)c2C2CC2)cc1
Polymyxin B 0.75 µg/mL
  bacterial growth OD600: 0.703

## Cc1ccccc1CC(C1CCN(C(=O)c2ccc(Cl)cc2)CC1)N(C)C(=O)Cn1cccn1 (stereo not drawn)
Polymyxin B 0.75 µg/mL
  bacterial growth OD600: 0.836

## CC(=O)c1ccccc1-c1ccc2c(c1)CC(CNC(=O)c1ccc(C)cc1C)O2 (stereo not drawn)
Polymyxin B 0.75 µg/mL
  bacterial growth OD600: 0.003

## COc1cccc(CNC2COc3ccccc3C2)c1OC (stereo not drawn)
Polymyxin B 0.75 µg/mL
  bacterial growth OD600: 0.765

## COc1cccc(-c2n[nH]c3c2CN(Cc2ccoc2)CC3)c1
Polymyxin B 0.75 µg/mL
  bacterial growth OD600: 0.768

## COc1cc(C)ccc1OCc1cc(C(=O)NC(c2cccnc2)C(F)(F)F)no1 (stereo not drawn)
Polymyxin B 1 µg/mL
  bacterial growth OD600: 1.33

## COCc1ccc(CN2CCCC(CCC(=O)Nc3ccc(OC)c(Cl)c3)C2)o1 (stereo not drawn)
Polymyxin B 1 µg/mL
  bacterial growth OD600: 1.07

## COCC(=O)Nc1cc(C(=O)NCCCc2cccnc2)cc2nc(-c3ccccc3)n(C)c12
Polymyxin B 0.75 µg/mL
  bacterial growth OD600: 0.862

## O=C(NCc1cccnc1)C1CCN(C2CCN(Cc3c(F)ccc(F)c3F)CC2)CC1
Polymyxin B 1 µg/mL
  bacterial growth OD600: 0.369

## CCn1ccnc1CN1CCCC(CNC(=O)c2cccc3ccccc23)C1 (stereo not drawn)
Polymyxin B 1 µg/mL
  bacterial growth OD600: 0.771

## COc1ccc(CC2=NOC(CNC(=O)c3cc(F)cc(F)c3)C2)cc1 (stereo not drawn)
Polymyxin B 0.75 µg/mL
  bacterial growth OD600: 0.803

## OCC1(Cc2ccccc2F)CCCN(Cc2cccc3ccccc23)C1 (stereo not drawn)
Polymyxin B 0.75 µg/mL
  bacterial growth OD600: -0.002

## O=C(NCC1CCC2(CCN(Cc3ccccc3)CC2)O1)/C(F)=C/c1ccccc1 (stereo not drawn)
Polymyxin B 0.75 µg/mL
  bacterial growth OD600: 0.737

## COc1ccc(C(=O)N2CCCC(C(=O)c3ccc(C(F)(F)F)cc3)C2)o1 (stereo not drawn)
Polymyxin B 1 µg/mL
  bacterial growth OD600: 0.683

## CCOC(=O)C1(CCCc2ccccc2)CCN(C(=O)c2ocnc2C)CC1
Polymyxin B 1 µg/mL
  bacterial growth OD600: 0.697

## CCc1ccc(-c2cn3c(C(=O)N(C)Cc4nccn4C)csc3n2)cc1
Polymyxin B 0.75 µg/mL
  bacterial growth OD600: 0.606

## COC(=O)CCC(=O)N1CCC(Oc2cccc(C(=O)NCc3cccnc3)c2)CC1
Polymyxin B 1 µg/mL
  bacterial growth OD600: 0.925

## CC1CCCN(c2ccc(C(=O)N3CCCN(c4ncccn4)CC3)cn2)C1 (stereo not drawn)
Polymyxin B 0.75 µg/mL
  bacterial growth OD600: 0.957

## CN(C)c1ncc2c(n1)CCCC2NC(=O)c1cc2cc(F)ccc2[nH]1 (stereo not drawn)
Polymyxin B 0.75 µg/mL
  bacterial growth OD600: 0.014

## Cc1ccc(C)c(CN2CCCC(CO)(Cc3ccccc3F)C2)c1 (stereo not drawn)
Polymyxin B 1 µg/mL
  bacterial growth OD600: 0.588

## C=CCNC(=O)NC1CC(=O)N(Cc2ccccc2C(F)(F)F)C1 (stereo not drawn)
Polymyxin B 1 µg/mL
  bacterial growth OD600: 0.809

## Cc1nc(CNC(=O)c2cc(COc3cccc(F)c3)[nH]n2)cs1
Polymyxin B 0.75 µg/mL
  bacterial growth OD600: 0.95

## COc1cccc(CCC2CCCN(C(=O)c3ccoc3)C2)c1 (stereo not drawn)
Polymyxin B 0.75 µg/mL
  bacterial growth OD600: 0.003

## COc1ccc(CN2Cc3cc(C)ccc3OC(c3ccsc3)C2)cc1O (stereo not drawn)
Polymyxin B 0.75 µg/mL
  bacterial growth OD600: 0.018

## CCCCn1c(CN2CCCC2)cnc1S(=O)(=O)CCCC(C)C
Polymyxin B 0.75 µg/mL
  bacterial growth OD600: 0.542

## COC(=O)c1ccc(-c2noc(CN3CCN(Cc4ccc(OC)cc4)C(=O)C3)n2)cc1
Polymyxin B 1 µg/mL
  bacterial growth OD600: 0.888

## CC(C)NCC1(O)CCCN(Cc2cccc(F)c2F)C1=O (stereo not drawn)
Polymyxin B 0.75 µg/mL
  bacterial growth OD600: 1.01

## CN(Cc1nc(Cc2ccccc2Cl)no1)Cc1cccc2cnccc12
Polymyxin B 1 µg/mL
  bacterial growth OD600: 0.947

## COC(C(=O)N1CCc2c(cnc(C)c2CNC(=O)c2ccccc2SC)C1)c1ccccc1 (stereo not drawn)
Polymyxin B 0.75 µg/mL
  bacterial growth OD600: 0.815
